Experimental data: patent US5776776
The exact form of at least one protein or probe is not confirmed. Negatives hold for the conditions tested.

Sequences of proteins named here, by UniProt entry; tags and fusion partners are left off. Residues count along the entry.
UniProt Q90701, 5-433: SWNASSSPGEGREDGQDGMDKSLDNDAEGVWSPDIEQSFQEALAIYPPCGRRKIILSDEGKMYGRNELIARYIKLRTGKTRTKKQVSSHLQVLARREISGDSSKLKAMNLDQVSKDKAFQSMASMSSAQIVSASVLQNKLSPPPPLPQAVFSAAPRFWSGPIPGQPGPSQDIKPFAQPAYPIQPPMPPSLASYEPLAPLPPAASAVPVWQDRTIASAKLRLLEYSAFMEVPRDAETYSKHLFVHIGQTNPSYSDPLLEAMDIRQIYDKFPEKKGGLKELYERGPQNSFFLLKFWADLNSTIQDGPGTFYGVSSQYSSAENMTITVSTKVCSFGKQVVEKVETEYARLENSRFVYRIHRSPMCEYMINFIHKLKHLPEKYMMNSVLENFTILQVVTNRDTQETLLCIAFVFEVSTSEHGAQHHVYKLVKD

Molecular target: DTEF-1A (fusion, codons from Ser5 to C-terminus) (Gallus gallus) (UniProt Q90701)
Test: competition with a labelled probe
Settings: excess mutant competitor did not compete; mutant oligo sequence taken from Example 2 (RTEF-1 gel shift), presumed the same; protein translated in vitro; protein details: N-terminal pRSET vector fusion (Invitrogen); variant of wild-type M-CAT DNA probe/competitor

Sequence: TCGGGTGTTGGGTACCTCTCTGC / CCGAGCAGAGAGGTACCCAACAC [mutant M-CAT competitor]
- binding result: no binding
